# Data reported in US20230287071A1.
# These are yes or no findings as the source states them, for the method shown. Binding can be weak; no strength is given.
# Target: HLA-B*44:05 (human)
# Experiment: UV peptide-exchange ELISA, yield grade
row,Binder,binding
1,SEAKEIKSQL [… (SEQ ID NO: 21)],binds
2,KQTEATMTF [… (SEQ ID NO: 300)],binds
3,AERIMFSDL [… (SEQ ID NO: 301)],binds
4,EGEDAHLTQY [… (SEQ ID NO: 302)],binds
5,GEDAHLTQY [… (SEQ ID NO: 303)],binds
6,RELGFTEATGW [… (SEQ ID NO: 304)],binds
7,AEKNRRDAETW [… (SEQ ID NO: 305)],binds
8,RRHPSFKRF [… (SEQ ID NO: 306)],binds
9,YEQLLKVVTW [… (SEQ ID NO: 307)],binds
10,EEPKIDFRVY [… (SEQ ID NO: 308)],binds
11,SDDLRNVTW [… (SEQ ID NO: 309)],binds
12,TEEITEGVW [… (SEQ ID NO: 22)],binds
13,FELECPVKY [… (SEQ ID NO: 310)],binds
14,REKDLPNYNW [… (SEQ ID NO: 311)],binds
15,KEWEREKAVSL [… (SEQ ID NO: 312)],binds
16,EEINQGGRKY [… (SEQ ID NO: 313)],binds
17,EMREERKF [EMREERKF (SEQ ID NO: 314)],binds
18,MEQQSQEY [MEQQSQEY (SEQ ID NO: 315)],binds
19,RLWPEPENW [… (SEQ ID NO: 316)],binds
20,TEFQQIINL [… (SEQ ID NO: 317)],binds
21,SESSSFLKV [… (SEQ ID NO: 318)],binds
22,YEWEPFAEV [… (SEQ ID NO: 319)],binds
23,EELALRIGL [… (SEQ ID NO: 24)],binds
24,AENPLNIFY [… (SEQ ID NO: 320)],binds
25,AENPLNIFYI [… (SEQ ID NO: 321)],binds
26,REESDWHYL [… (SEQ ID NO: 322)],binds

row,Binder,binding
1,SETAVVNVTY [… (SEQ ID NO: 323)],binds
2,QELSSIRQF [… (SEQ ID NO: 324)],binds
3,AEQEIMKKV [… (SEQ ID NO: 325)],binds
4,RELLDFSSW [… (SEQ ID NO: 326)],binds
5,SEQHSLPVF [… (SEQ ID NO: 327)],binds
6,SEPQITVNF [… (SEQ ID NO: 329)],binds
7,SEHLFGTSY [… (SEQ ID NO: 330)],binds
8,SEKEPGQQY [… (SEQ ID NO: 25)],binds
9,KELEATKQYL [… (SEQ ID NO: 331)],binds
10,SEADWLRFW [… (SEQ ID NO: 332)],binds
11,SEGTLPYSY [… (SEQ ID NO: 333)],binds
12,LEWQNSSSM [… (SEQ ID NO: 334)],binds
13,SETPTLQGL [… (SEQ ID NO: 335)],binds
14,QEVNISLHY [… (SEQ ID NO: 336)],binds
15,AEMKFYVVI [… (SEQ ID NO: 338)],binds
16,NEVKEIKGY [… (SEQ ID NO: 339)],binds
17,GELAPSHGL [… (SEQ ID NO: 340)],binds
18,EESSSPVDEY [… (SEQ ID NO: 26)],binds
19,HELESENKKW [… (SEQ ID NO: 341)],binds
20,SENKKWVEF [… (SEQ ID NO: 342)],binds
21,SEFDLEQVW [… (SEQ ID NO: 343)],binds
22,DEIRVFGY [DEIRVFGY (SEQ ID NO: 344)],binds
23,AEYQAAILHL [… (SEQ ID NO: 345)],binds
24,EEIENLQAQF [… (SEQ ID NO: 346)],binds
25,LENPHVQSV [… (SEQ ID NO: 347)],binds
26,SEVLLTSISTF [… (SEQ ID NO: 348)],binds

row,Binder,binding
1,LEWQHPSSW [… (SEQ ID NO: 349)],binds
2,EEMLENVSL [… (SEQ ID NO: 350)],binds
3,GETCVRITY [… (SEQ ID NO: 27)],binds
4,EEGRVYVY [EEGRVYVY (SEQ ID NO: 351)],binds
5,QEDELVKIRKY [… (SEQ ID NO: 352)],binds
6,AETEEGIYW [… (SEQ ID NO: 353)],binds
7,TEIMEKTTL [… (SEQ ID NO: 354)],binds
8,SETSTGTSV [… (SEQ ID NO: 355)],binds
9,TEAVLNRY [TEAVLNRY (SEQ ID NO: 356)],binds
10,AELMDKPLTF [… (SEQ ID NO: 357)],binds
11,TEFHGGLHY [… (SEQ ID NO: 358)],binds
12,NEFRRKLTF [… (SEQ ID NO: 359)],binds
13,DEMENLLTY [… (SEQ ID NO: 360)],binds
14,QEFPAHSL [QEFPAHSL (SEQ ID NO: 28)],binds
15,EDASLMGLY [… (SEQ ID NO: 361)],binds
16,SEVEYINKY [… (SEQ ID NO: 362)],binds
17,EECDKAFHF [… (SEQ ID NO: 363)],binds
18,EECDKAYSF [… (SEQ ID NO: 364)],binds
19,NESGKAFNY [… (SEQ ID NO: 365)],binds
20,EECGKAFKKF [… (SEQ ID NO: 366)],binds
21,TEFAVKLKI [… (SEQ ID NO: 367)],binds
22,KEKVPGITI [… (SEQ ID NO: 368)],binds
23,KELEERMLHW [… (SEQ ID NO: 369)],binds
24,EEVLLANALW [… (SEQ ID NO: 370)],binds
25,TENPKKFKI [… (SEQ ID NO: 29)],binds
